3 molecules from publication PMC2848158 can be followed below.

Results are given in words; binding and its absence hold for the method and conditions named. Binding can be weak; no strength is given. For part of these data: In cells and extracts the contact can be indirect.

Experiment [1] deals with GST fusion form of the Danio rerio Runx2b orthologue (Danio rerio). In words: pull-down; GST-Runx2 fusion proteins on glutathione-Sepharose, incubated with pure recombinant VDR (1.5 μg) for 2 h at 4°C in 20 mM Tris pH 8.0, 100 mM KCl, 0.5% NP-40, 10 mM EDTA, 0.05 mM PMSF, 1 mM DTT, 0.5% non-fat milk; four washes; Western blot (anti-VDR or anti-Myc); both purified. (A western blot detects proteins with antibodies after separation by electrophoresis.)

Experiment [2] shares this target. Nature of the experiment: pull-down; GST-Runx fusion proteins (1.5 μg) bound to 20 μl glutathione-Sepharose beads, incubated with nuclear extracts (150 μg) of ROS 17/2.8 cells cultured with 10^-8 M 1α,25-dihydroxyvitamin D3 for 18 h; VDR detected by Western blot; only the target purified.

B1: recombinant VDR homologue from Homo sapiens (protein, UniProt P11473-1 1-427)
chain: MEAMAASTSLPDPGDFDRNVPRICGVCGDRATGFHFNAMTCEGCKGFFRRSMKRKALFTCPFNGDCRITKDNRRHCQACRLKRCVDIGMMKEFILTDEEVQRKREMILKRKEEEALKDSLRPKLSEEQQRIIAILLDAHHKTYDPTYSDFCQFRPPVRVNDGGGSHPSRPNSRHTPSFSGDSSSSCSDHCITSSDMMDSSSFSNLDLSEEDSDDPSVTLELSQLSMLPHLADLVSYSIQKVIGFAKMIPGFRDLTSEDQIVLLKSSAIEVIMLRSNESFTMDDMSWTCGNQDYKYRVSDVTKAGHSLELIEPLIKFQVGLKKLNLHEEEHVLLMAICIVSPDRPGVQDAALIEAIQDRLSNTLQTYIRCRHPPPGSHLLYAKMIQKLADLRSLNEEHSKQYRCLSFQPECSMKLTPLVLEVFGNEIS
On to B1, for which the binding result in experiment [1] is “binds weakly”.

B2: endogenous mammalian VDR obtained from nuclear extracts of immortalized rat osteoblasts (protein, UniProt P13053 1-423)
chain: MEATAASTSLPDPGDFDRNVPRICGVCGDRATGFHFNAMTCEGCKGFFRRSMKRKALFTCPFNGDCRITKDNRRHCQACRLKRCVDIGMMKEFILTDEEVQRKREMIMKRKEEEALKDSLRPKLSEEQQHIIAILLDAHHKTYDPTYADFRDFRPPVRMDGSTGSYSPRPTLSFSGNSSSSSSDLYTTSLDMMEPSGFSNLDLNGEDSDDPSVTLDLSPLSMLPHLADLVSYSIQKVIGFAKMIPGFRDLTSDDQIVLLKSSAIEVIMLRSNQSFTMDDMSWDCGSQDYKYDVTDVSKAGHTLELIEPLIKFQVGLKKLNLHEEEHVLLMAICIVSPDRPGVQDAKLVEAIQDRLSNTLQTYIRCRHPPPGSHQLYAKMIQKLADLRSLNEEHSKQYRSLSFQPENSMKLTPLVLEVFGNEIS
For B2, the binding result in experiment [2] is recorded as “binds”.

B3: recombinant form of the Danio rerio VDR homologue (protein, UniProt Q9PTN2 1-453)
chain: MLTENSAVNSGGKSKCEAGACESRVNGDATSVMDLMAVSTSATGQDEFDRNAPRICGVCGDKATGFHFNAMTCEGCKGFFRRSMKRKASFTCPFNGNCTITKDNRRHCQACRLKRCIDIGMMKEFILTDEEVQRKKDLIMKRKEEEAAREARKPRLSDEQMQIINSLVEAHHKTYDDSYSDFVRFRPPVREGPVTRSASRAASLHSLSDASSDSFNHSPESVDTKLNFSNLLMMYQDSGSPDSSEEDQQSRLSMLPHLADLVSYSIQKVIGFAKMIPGFRDLTAEDQIALLKSSAIEIIMLRSNQSFSLEDMSWSCGGPDFKYCINDVTKAGHTLELLEPLVKFQVGLKKLKLHEEEHVLLMAICLLSPDRPGVQDHVRIEALQDRLCDVLQAYIRIQHPGGRLLYAKMIQKLADLRSLNEEHSKQYRSLSFQPEHSMQLTPLVLEVFGSEVS
With B3, the binding entry in experiment [1] was “binds”.
